# Reference: PMC13015889
# T1: ERECTA-HA-TbID fusion protein (Arabidopsis thaliana) (UniProt Q42371)
# T1 sequence: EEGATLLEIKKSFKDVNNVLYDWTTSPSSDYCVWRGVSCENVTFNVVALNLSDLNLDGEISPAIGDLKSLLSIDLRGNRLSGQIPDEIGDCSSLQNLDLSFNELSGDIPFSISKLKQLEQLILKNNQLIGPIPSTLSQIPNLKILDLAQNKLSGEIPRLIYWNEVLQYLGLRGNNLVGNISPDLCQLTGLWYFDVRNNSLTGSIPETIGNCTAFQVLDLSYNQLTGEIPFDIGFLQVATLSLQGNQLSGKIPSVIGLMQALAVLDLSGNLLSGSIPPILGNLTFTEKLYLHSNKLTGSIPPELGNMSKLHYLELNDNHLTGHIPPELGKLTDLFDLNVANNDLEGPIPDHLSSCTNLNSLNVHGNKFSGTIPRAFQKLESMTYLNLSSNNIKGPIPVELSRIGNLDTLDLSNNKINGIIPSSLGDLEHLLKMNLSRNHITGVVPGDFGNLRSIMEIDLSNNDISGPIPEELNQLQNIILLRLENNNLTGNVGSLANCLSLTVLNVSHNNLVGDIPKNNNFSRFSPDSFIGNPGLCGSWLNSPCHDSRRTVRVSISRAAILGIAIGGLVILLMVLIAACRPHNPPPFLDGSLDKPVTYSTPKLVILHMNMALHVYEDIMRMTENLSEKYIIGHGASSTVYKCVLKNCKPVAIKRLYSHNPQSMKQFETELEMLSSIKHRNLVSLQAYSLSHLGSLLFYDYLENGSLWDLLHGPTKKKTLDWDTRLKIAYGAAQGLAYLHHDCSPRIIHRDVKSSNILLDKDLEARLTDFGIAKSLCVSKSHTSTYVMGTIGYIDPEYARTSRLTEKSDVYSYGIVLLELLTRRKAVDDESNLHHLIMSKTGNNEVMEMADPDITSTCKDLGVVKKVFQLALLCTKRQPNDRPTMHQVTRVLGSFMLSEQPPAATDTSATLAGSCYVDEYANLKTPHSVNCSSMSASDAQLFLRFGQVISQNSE
# B1: LRR-RK HAESA-LIKE1 (HSL1) (receptor, UniProt Q9SGP2 16-996)
# chain: LNQDGFILQQVKLSLDDPDSYLSSWNSNDASPCRWSGVSCAGDFSSVTSVDLSSANLAGPFPSVICRLSNLAHLSLYNNSINSTLPLNIAACKSLQTLDLSQNLLTGELPQTLADIPTLVHLDLTGNNFSGDIPASFGKFENLEVLSLVYNLLDGTIPPFLGNISTLKMLNLSYNPFSPSRIPPEFGNLTNLEVMWLTECHLVGQIPDSLGQLSKLVDLDLALNDLVGHIPPSLGGLTNVVQIELYNNSLTGEIPPELGNLKSLRLLDASMNQLTGKIPDELCRVPLESLNLYENNLEGELPASIALSPNLYEIRIFGNRLTGGLPKDLGLNSPLRWLDVSENEFSGDLPADLCAKGELEELLIIHNSFSGVIPESLADCRSLTRIRLAYNRFSGSVPTGFWGLPHVNLLELVNNSFSGEISKSIGGASNLSLLILSNNEFTGSLPEEIGSLDNLNQLSASGNKFSGSLPDSLMSLGELGTLDLHGNQFSGELTSGIKSWKKLNELNLADNEFTGKIPDEIGSLSVLNYLDLSGNMFSGKIPVSLQSLKLNQLNLSYNRLSGDLPPSLAKDMYKNSFIGNPGLCGDIKGLCGSENEAKKRGYVWLLRSIFVLAAMVLLAGVAWFYFKYRTFKKARAMERSKWTLMSFHKLGFSEHEILESLDEDNVIGAGASGKVYKVVLTNGETVAVKRLWTGSVKETGDCDPEKGYKPGVQDEAFEAEVETLGKIRHKNIVKLWCCCSTRDCKLLVYEYMPNGSLGDLLHSSKGGMLGWQTRFKIILDAAEGLSYLHHDSVPPIVHRDIKSNNILIDGDYGARVADFGVAKAVDLTGKAPKSMSVIAGSCGYIAPEYAYTLRVNEKSDIYSFGVVILEIVTRKRPVDPELGEKDLVKWVCSTLDQKGIEHVIDPKLDSCFKEEISKILNVGLLCTSPLPINRPSMRRVVKMLQEIGGGDEDSLHKIRDDKDGKLTPYYNEDTSDQGSIA
# B2: ANGUSTIFOLIA (protein, UniProt O23702 1-636)
# chain: MSKIRSSATMPHRDQPSPASPHVVTLNCIEDCALEQDSLAGVAGVEYVPLSRIADGKIESATAVLLHSLAYLPRAAQRRLRPHQLILCLGSADRAVDSTLAADLGLRLVHVDTSRAEEIADTVMALILGLLRRTHLLSRHALSASGWLGSLQPLCRGMRRCRGMVLGIVGRSVSARYLASRSLAFKMSVLYFDVPEGDEERIRPSRFPRAARRMDTLNDLLAASDVISLHCALTNDTVQILNAECLQHIKPGAFLVNTGSCQLLDDCAVKQLLIDGTIAGCALDGAEGPQWMEAWVKEMPNVLILPRSADYSEEVWMEIREKAISILHSFFLDGVIPSNTVSDEEVEESEASEEEEQSPSKHEKLAIVESTSRQQGESTLTSTEIVRREASELKESLSPGQQHVSQNTAVKPEGRRSRSGKKAKKRHSQQKYMQKTDGSSGLNEESTSRRDDIAMSDTEEVLSSSSRCASPEDSRSRKTPLEVMQESSPNQLVMSSKKFIGKSSELLKDGYVVALYAKDLSGLHVSRQRTKNGGWFLDTLSNVSKRDPAAQFIIAYRNKDTVGLRSFAAGGKLLQINRRMEFVFASHSFDVWESWSLEGSLDECRLVNCRNSSAVLDVRVEILAMVGDDGITRWID
# What was measured:
# [1] = target: T1, ERECTA-HA-TbID fusion protein (Arabidopsis thaliana); assay: proximity labelling; ERECTA membrane TbID-PL: microsomal fractionation, microsomal versus cytosolic fractions
# [2] = target: T1, ERECTA-HA-TbID fusion protein (Arabidopsis thaliana); assay: proximity labelling; TbID-PL: ERECTA-HA-TbID seedlings, 50 μM biotin 1 hour at room temperature; biotinylated proteins on streptavidin magnetic beads, LC-MS; ERECTA-HA-TbID vs er-105
# [3] = target: T1, ERECTA-HA-TbID fusion protein (Arabidopsis thaliana); assay: proximity labelling; optimized TbID-PL: ERECTA-HA-TbID seedlings with biotin (1 hour) compared to mock treated control (without biotin, 1 hour)
binder,measurement,setting,value
B1,binding,[1],binds
B2,binding,[1],binds
same,binding,[2],binds
same,binding,[3],binds

# Results are given in words; binding and its absence hold for the method and conditions named. Binding seen in cells or lysates may run through a third protein. Here binding means that the protein was enriched with, or labelled near, the bait; the list need not be complete. Where a sequence is shown, tags or fusion partners need not be part of it.
